This is an account of results in the M2OR odorant receptor database.

Chains of the proteins cited; added tags and fusions are not shown. Where a name states a change or a piece, a line headed by the entry shows the natural chain unless it says otherwise. Chains listed by the source or under a name are the forms on record and can include a tag or linker.
UniProt Q15612: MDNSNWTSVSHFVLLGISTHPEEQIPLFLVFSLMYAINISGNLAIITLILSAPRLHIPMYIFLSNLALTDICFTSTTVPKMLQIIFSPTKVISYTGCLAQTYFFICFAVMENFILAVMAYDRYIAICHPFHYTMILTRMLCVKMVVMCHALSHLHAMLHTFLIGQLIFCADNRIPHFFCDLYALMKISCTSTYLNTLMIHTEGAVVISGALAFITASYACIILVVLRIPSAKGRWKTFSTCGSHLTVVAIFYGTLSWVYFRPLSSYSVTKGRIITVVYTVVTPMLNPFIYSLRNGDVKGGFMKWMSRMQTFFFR
UniProt Q8NH92: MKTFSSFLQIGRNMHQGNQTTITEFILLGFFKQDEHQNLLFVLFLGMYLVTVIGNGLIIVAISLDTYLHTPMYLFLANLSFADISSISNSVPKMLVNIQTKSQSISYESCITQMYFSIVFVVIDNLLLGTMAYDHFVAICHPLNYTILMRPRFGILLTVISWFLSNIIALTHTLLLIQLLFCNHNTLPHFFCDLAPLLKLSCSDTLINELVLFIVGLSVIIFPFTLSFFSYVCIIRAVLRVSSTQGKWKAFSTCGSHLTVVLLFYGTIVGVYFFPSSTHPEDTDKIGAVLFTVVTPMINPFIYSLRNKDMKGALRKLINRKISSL
OR1N2, as listed by the source: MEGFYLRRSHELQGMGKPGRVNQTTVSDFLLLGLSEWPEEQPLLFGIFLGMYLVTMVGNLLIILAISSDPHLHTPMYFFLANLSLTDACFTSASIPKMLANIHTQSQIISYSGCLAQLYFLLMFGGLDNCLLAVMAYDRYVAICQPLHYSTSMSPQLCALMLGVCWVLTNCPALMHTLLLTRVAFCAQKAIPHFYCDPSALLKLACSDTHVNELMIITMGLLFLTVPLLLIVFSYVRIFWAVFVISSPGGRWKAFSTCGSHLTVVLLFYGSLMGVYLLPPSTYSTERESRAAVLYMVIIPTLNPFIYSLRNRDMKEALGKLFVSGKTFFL

Conditions in all cases: stereoisomer not certain
The test system of assay [1] is T1, OR1N2.
T1 sequence (whole entry): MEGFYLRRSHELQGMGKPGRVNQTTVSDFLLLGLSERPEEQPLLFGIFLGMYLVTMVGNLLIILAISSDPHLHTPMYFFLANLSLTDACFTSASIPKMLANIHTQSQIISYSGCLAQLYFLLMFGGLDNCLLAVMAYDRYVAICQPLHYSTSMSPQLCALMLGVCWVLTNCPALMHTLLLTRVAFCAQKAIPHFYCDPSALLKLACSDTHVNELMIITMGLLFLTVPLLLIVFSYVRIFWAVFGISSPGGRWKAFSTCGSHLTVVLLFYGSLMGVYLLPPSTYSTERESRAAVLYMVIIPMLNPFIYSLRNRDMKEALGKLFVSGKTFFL
The method, boiled down: (§1)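 Values were gathered from published papers (main text and supplementary material), with extra details requested from the original authors when needed, and checked for typos and inconsistencies. Each receptor–molecule pair is called responsive (active) if the original authors judged the measured signal statistically different from baseline, and non-responsive (inactive) otherwise. Assay methods varied by source, often transient mammalian cell-line luciferase assays. Recorded details include cell line, G-protein, co-transfected protein and tags.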

Another assay relates to T2, OR1Q1.
T2 sequence (whole entry): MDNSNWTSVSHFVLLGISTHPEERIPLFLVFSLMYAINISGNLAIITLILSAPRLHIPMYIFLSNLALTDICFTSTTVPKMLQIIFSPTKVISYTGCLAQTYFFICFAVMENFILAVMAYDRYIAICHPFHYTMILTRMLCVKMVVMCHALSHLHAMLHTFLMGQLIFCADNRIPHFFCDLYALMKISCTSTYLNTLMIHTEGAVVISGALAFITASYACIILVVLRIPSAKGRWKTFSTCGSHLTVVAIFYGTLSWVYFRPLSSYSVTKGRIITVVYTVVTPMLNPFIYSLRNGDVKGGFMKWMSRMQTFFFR
The gist of the method: as §1

The subject of another assay is T3, OR1S1.
T3 sequence (whole entry): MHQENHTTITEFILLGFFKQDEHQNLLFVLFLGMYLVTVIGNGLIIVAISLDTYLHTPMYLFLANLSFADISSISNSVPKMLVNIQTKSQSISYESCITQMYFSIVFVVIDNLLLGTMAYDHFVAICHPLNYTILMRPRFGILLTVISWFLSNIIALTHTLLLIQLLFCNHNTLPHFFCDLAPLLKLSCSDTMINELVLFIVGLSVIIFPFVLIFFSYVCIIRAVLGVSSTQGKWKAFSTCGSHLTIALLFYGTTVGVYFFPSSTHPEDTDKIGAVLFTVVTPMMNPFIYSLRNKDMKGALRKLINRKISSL
The method, boiled down:
as §1

For a further assay, the system named is T4, OR1S2.
T4 sequence (whole entry): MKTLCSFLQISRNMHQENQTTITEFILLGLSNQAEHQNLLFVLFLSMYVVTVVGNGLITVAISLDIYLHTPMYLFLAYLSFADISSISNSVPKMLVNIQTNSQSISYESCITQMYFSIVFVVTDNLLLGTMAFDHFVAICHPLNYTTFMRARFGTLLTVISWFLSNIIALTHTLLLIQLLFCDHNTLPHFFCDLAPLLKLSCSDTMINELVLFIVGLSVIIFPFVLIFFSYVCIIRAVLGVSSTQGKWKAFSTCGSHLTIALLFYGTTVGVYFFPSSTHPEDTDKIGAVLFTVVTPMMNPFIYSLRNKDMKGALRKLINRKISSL
The method, boiled down: as §1

In the next assay the target is T5, OR2A12 (Homo sapiens) (UniProt Q8NGT7).
T5 sequence (whole entry): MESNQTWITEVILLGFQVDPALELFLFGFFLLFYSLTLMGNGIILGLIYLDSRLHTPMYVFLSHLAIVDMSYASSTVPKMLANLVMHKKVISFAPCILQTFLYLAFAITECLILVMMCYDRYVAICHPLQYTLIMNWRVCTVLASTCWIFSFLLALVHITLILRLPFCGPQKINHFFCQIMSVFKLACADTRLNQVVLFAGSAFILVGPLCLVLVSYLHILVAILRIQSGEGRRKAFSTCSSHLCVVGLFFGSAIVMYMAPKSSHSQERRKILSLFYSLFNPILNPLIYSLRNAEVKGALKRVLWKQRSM
The gist of the method:
as §1

The next assay has as its target T6, OR2A1 (Homo sapiens) (UniProt Q8NGT9).
T6 sequence (whole entry): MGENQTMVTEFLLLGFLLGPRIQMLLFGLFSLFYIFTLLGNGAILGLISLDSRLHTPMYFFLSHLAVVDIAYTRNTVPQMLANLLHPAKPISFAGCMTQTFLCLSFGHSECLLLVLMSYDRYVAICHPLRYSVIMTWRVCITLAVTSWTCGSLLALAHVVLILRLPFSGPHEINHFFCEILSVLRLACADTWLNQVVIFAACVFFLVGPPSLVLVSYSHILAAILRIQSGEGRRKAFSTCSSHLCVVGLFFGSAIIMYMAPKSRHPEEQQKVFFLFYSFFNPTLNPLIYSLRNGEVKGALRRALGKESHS
The gist of the method: as §1

Assay [2] relates to OR1N2. The method, boiled down: as §1
This is another data set of the same source.

In another assay the target is OR1Q1 (Homo sapiens) (UniProt Q15612). The gist of the method:
as §1

The target of the next assay is OR1S1 (Homo sapiens) (UniProt Q8NH92). The method, boiled down: as §1
A further assay concerns the target OR1S2 (Homo sapiens) (UniProt Q8NGQ3). The gist of the method: as §1

Only a part is listed here, and it is no random draw. Calls are pooled over several reports, among them a noisy single-well screen. The list shows a part of the results.

For the compound `C=CCc1ccc(OC)c(OC)c1`, the “odorant receptor agonist call” value in the assay with OR1N2 [1], with OR1Q1, with OR1S1, with OR1S2 and in the assay with OR2A12 (Homo sapiens) was “inactive” each time.
In the case of `COc1cc(C=O)ccc1O`, the “odorant receptor agonist call” value with OR1N2 [1], with OR1Q1, with OR1S2, with OR2A1 (Homo sapiens) and in the assay with OR2A12 (Homo sapiens) was “inactive” throughout. The “odorant receptor agonist call” value with OR1S1 is “active”.
In the case of `CC12CCC(C1)C(C)(C)C2=O` (stereo not drawn), the “odorant receptor agonist call” value with OR1N2 [1], in the assay on OR1Q1, in the assay on OR1S1, with OR1S2 and with OR2A12 (Homo sapiens) was “inactive” each time.
Regarding `CC12C=CCC1C1CCC3CC(=O)CCC3(C)C1CC2` (stereo not drawn), the “odorant receptor agonist call” value in the assay with OR1N2 [1], with OR1N2 [2], in the assay with OR1Q1 (Homo sapiens), with OR1Q1, in the assay with OR1S1 (Homo sapiens) and in the assay on OR1S1 was “inactive” each time. Further, the “odorant receptor agonist call” value with OR1S2 (Homo sapiens) and in the assay with OR2A12 (Homo sapiens) was “inactive” each time. Besides, in the assay on OR1S2, the “odorant receptor agonist call” value was “active”.
Consider `CC(=O)C(C)=O`, for which the “odorant receptor agonist call” value in the assay with OR1N2 [1], in the assay with OR1Q1, in the assay on OR1S1, with OR1S2 and with OR2A12 (Homo sapiens) was “inactive” in each case.
For the compound `CCCC(=O)O`, the “odorant receptor agonist call” value with OR1N2 [1], in the assay on OR1Q1, in the assay on OR1S2, with OR2A1 (Homo sapiens) and with OR2A12 (Homo sapiens) was “inactive” in each case. Also, the “odorant receptor agonist call” value in the assay with OR1S1 was “active”.
With `O=CCc1ccccc1`, the “odorant receptor agonist call” value with OR1N2 [1], in the assay on OR1Q1, in the assay on OR1S1, in the assay with OR1S2 and with OR2A12 (Homo sapiens) was “inactive” each time.
On to `O=C1CCCCCCCCCCCCCCO1`, for which the “odorant receptor agonist call” value in the assay with OR1N2 [1], in the assay on OR1Q1, in the assay on OR1S1, with OR1S2 and in the assay with OR2A12 (Homo sapiens) was “inactive” throughout.
With `CC(C)=CCCC(C)=CC=O`, the “odorant receptor agonist call” value with OR1N2 [1], with OR1Q1, in the assay on OR1S1, in the assay with OR1S2 and with OR2A12 (Homo sapiens) was “inactive” throughout.
As to `CC(C)C=O`, the “odorant receptor agonist call” value with OR1N2 [1], in the assay on OR1Q1, in the assay on OR1S1, with OR1S2 and in the assay with OR2A12 (Homo sapiens) was “inactive” in each case.
As to `CCCCCCCCCCC=O`, the “odorant receptor agonist call” value with OR1N2 [1], in the assay with OR1Q1, in the assay on OR1S1, with OR1S2, in the assay with OR2A1 (Homo sapiens) and with OR2A12 (Homo sapiens) was “inactive” throughout.
Consider `CC(C)CC(=O)O`, for which the “odorant receptor agonist call” value in the assay on OR1N2 [1], in the assay with OR1Q1, in the assay with OR1S1, in the assay with OR1S2, with OR2A1 (Homo sapiens) and with OR2A12 (Homo sapiens) was “inactive” each time.
Regarding `CCCCCOC(C)=O`, the “odorant receptor agonist call” value in the assay on OR1N2 [1], in the assay on OR1Q1, in the assay with OR1S1, with OR1S2 and in the assay with OR2A12 (Homo sapiens) was “inactive” each time.
On to `CC1CCC(C(C)C)C(O)C1` (stereo not drawn), for which the “odorant receptor agonist call” value in the assay on OR1N2 [1], with OR1Q1, with OR1S2, with OR2A1 (Homo sapiens) and with OR2A12 (Homo sapiens) was “inactive” each time. The “odorant receptor agonist call” value with OR1S1 is “active”.
Consider `COC(=O)c1ccccc1O`, for which the “odorant receptor agonist call” value in the assay on OR1N2 [1], in the assay on OR1Q1, with OR1S1, with OR1S2 and in the assay with OR2A12 (Homo sapiens) was “inactive” each time.
On to `CC1COCc2cc3c(cc21)C(C)(C)C(C)C3(C)C` (stereo not drawn), for which the “odorant receptor agonist call” value in the assay on OR1N2 [1], in the assay with OR1Q1, in the assay with OR1S1, with OR1S2 and with OR2A12 (Homo sapiens) was “active” each time.
On to `CCCCCCCCOC(C)=O`, for which the “odorant receptor agonist call” value in the assay on OR1N2 [1], with OR1Q1, in the assay with OR1S1, with OR1S2 and in the assay with OR2A12 (Homo sapiens) was “inactive” throughout.
Consider `CC(C)CCC(=O)O`, for which the “odorant receptor agonist call” value in the assay on OR1N2 [1], with OR1Q1, in the assay with OR1S1, in the assay with OR1S2 and in the assay with OR2A12 (Homo sapiens) was “inactive” throughout.
Take `C=CC(C)(O)CCC=C(C)C` (stereo not drawn): the “odorant receptor agonist call” value with OR1N2 [1] was “active”. The “odorant receptor agonist call” value with OR1Q1, in the assay with OR1S1, in the assay on OR1S2, with OR2A1 (Homo sapiens) and with OR2A12 (Homo sapiens) was “inactive” in each case.
Take `CCCCO`: the “odorant receptor agonist call” value in the assay with OR1N2 [1], in the assay with OR1Q1, in the assay on OR1S1, in the assay with OR1S2, with OR2A1 (Homo sapiens) and with OR2A12 (Homo sapiens) was “inactive” each time.
In the case of `CC12CCC(CC1)C(C)(C)O2`, the “odorant receptor agonist call” value in the assay with OR1N2 [1], in the assay with OR1Q1, in the assay on OR1S1, in the assay on OR1S2 and with OR2A12 (Homo sapiens) was “inactive” each time.
Take `CCCCCCCC=O`: the “odorant receptor agonist call” value in the assay with OR1N2 [1], in the assay on OR1Q1, with OR1S1, in the assay on OR1S2, with OR2A1 (Homo sapiens) and with OR2A12 (Homo sapiens) was “inactive” each time.
Take `CCC1(O)C2(C)CCC(C2)C1(C)C` (stereo not drawn): the “odorant receptor agonist call” value in the assay with OR1N2 [1], in the assay with OR1Q1, with OR1S1, in the assay with OR1S2 and with OR2A12 (Homo sapiens) was “inactive” each time.
On to `CCCCCC(=O)O`, for which the “odorant receptor agonist call” value in the assay on OR1N2 [1], in the assay with OR1Q1, in the assay on OR1S1, with OR1S2, in the assay with OR2A1 (Homo sapiens) and with OR2A12 (Homo sapiens) was “inactive” throughout.
On to `CC=Cc1ccc(O)c(OC)c1`, for which the “odorant receptor agonist call” value with OR1N2 [1], in the assay on OR1Q1 and with OR2A12 (Homo sapiens) was “inactive” throughout. Moreover, the “odorant receptor agonist call” value in the assay with OR1S1 and in the assay with OR1S2 was “active” each time.
For `C=CCc1ccc(OC(C)=O)c(OC)c1`, the “odorant receptor agonist call” value in the assay with OR1N2 [1], in the assay with OR1Q1, in the assay with OR1S2 and with OR2A12 (Homo sapiens) was “inactive” in each case. The “odorant receptor agonist call” value in the assay on OR1S1 was “active”.
As for `CCCCCCCOC(C)=O`, the “odorant receptor agonist call” value in the assay with OR1N2 [1], in the assay on OR1Q1, with OR1S1, in the assay with OR1S2 and in the assay with OR2A12 (Homo sapiens) was “inactive” in each case.
